The exact form of at least one protein or probe is not confirmed. Where cells or extracts were used, other partners may take part. For some assays here: No signal at the amounts used counts as a negative. For some assays here: At least one verdict was read from the data and is not stated in words by the source.
Legend:
[1] = molecular target: prostate-specific membrane antigen (PSMA) (UniProt Q04609); assay: flow cytometry on cells; conditions: 50 nM PSEP, C4-2 cells, staining reduced on PSMA knockdown, no binding to PSMA-negative PC3, BXPC3, T-24; 2'-F pyrimidines; Flow binding: 50 nM Cy3-RNA on trypsinized, PBS-washed cells, 300 ug/ml yeast tRNA, 30 min, 37 C; protein on the cell surface; label: Cy3-CTP incorporated in strand 1 (RNA1)
[2] = molecular target: prostate-specific membrane antigen (PSMA) (UniProt Q04609); assay: flow cytometry and confocal microscopy on cells; conditions: non-targeting control, signal treated as nonspecific background, PSEP about 7-fold higher in confocal; 2'-F pyrimidines; Flow binding: 50 nM Cy3-RNA on trypsinized, PBS-washed cells, 300 ug/ml yeast tRNA, 30 min, 37 C; protein on the cell surface; label: Cy3-CTP incorporated in strand 1 (RNA10); letters put together from the description

Chains of the proteins cited; added tags and fusions are not shown. Lines headed by an entry give the natural chain unless they say otherwise; changes in a name come on top.
UniProt Q04609: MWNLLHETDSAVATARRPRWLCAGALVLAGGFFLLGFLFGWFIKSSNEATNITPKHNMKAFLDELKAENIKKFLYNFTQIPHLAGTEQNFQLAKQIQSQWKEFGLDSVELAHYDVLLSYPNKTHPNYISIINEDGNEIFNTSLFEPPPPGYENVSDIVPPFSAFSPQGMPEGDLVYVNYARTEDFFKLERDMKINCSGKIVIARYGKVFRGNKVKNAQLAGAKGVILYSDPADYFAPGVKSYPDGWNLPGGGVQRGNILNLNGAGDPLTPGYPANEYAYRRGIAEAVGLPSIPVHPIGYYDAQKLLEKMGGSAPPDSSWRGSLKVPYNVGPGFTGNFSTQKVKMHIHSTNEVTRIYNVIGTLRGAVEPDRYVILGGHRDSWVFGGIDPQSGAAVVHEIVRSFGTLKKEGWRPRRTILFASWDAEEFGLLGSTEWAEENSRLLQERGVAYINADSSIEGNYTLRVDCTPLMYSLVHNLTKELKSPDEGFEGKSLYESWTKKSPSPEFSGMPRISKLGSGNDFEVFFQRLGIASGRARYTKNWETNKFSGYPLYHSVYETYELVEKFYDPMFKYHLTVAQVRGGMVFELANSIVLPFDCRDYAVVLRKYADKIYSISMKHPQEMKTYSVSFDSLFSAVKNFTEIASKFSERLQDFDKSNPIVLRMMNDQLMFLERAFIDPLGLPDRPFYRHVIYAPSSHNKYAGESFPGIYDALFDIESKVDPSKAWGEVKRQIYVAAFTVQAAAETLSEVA

| Sequence | binding result [1] | binding result [2] |
| --- | --- | --- |
| GGGAGGACGAUGCGGAUCAGCCAUGUUUACGUCACUCCUAAAAUGUAGAGAUGCGGUGGUCCUU / GGGAGGACGAUGCGGAUCAGCCAUGUUUACGUCACUCCUAAAACCUUAGCAGUCUUAUCUAAUUUUGGACCACCGCAUCUCUACAUU / UUAGAUAAGACUGCUAAGGCA | binds |  |
| GGAUCCCGACUGGCGAGAGCCAGGUAACGAAUGGAUCCUUUUGUAGAGAUGCGGUGGUCCUU / GGAUCCCGACUGGCGAGAGCCAGGUAACGAAUGGAUCCAAAAACCUUAGCAGUCUUAUCUAAUUUUGGACCACCGCAUCUCUACAUU / UUAGAUAAGACUGCUAAGGCA [MSEM (two MG aptamers, non-targeting control)] |  | no binding |

From PMC4960556
